Experiment [1] concerns the target Ube2G2/MmUbc7, in vitro translated and labelled with 35S-methionine (human (100% identical to mouse MmUbc7)) (UniProt P60604). Nature of the experiment: GST pull-down, Ube2G2 translated in reticulocyte lysate, 35S-Met.
The target is the same in experiment [2]. Nature of the experiment: GST pull-down, Ube2G2 in vitro translated in rabbit reticulocyte lysate.

Sequences of proteins named here, by UniProt entry; tags and fusion partners are left off. A change or cut given only in a name is not applied to a line headed by its entry.
UniProt P60604: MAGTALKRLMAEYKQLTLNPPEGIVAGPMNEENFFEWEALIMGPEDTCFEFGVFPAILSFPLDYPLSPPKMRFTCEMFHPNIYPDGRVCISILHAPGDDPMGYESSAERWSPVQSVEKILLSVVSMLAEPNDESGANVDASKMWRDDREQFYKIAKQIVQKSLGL

These are yes or no findings as the source states them, for the method shown. In cells and extracts the contact can be indirect. Some binding calls cover weakened binding; strength is not graded here. Tags and fused reporters may be left off the sequences shown.

Consider SADERQRMLVQRKDELLQQARKRFLNKSSEDDAAS (peptide, not shown: a dimerising Fc or GST) [GST fusion of gp78 amino acids 574-608 (of SEQ ID NO:2)], for which the binding entry in experiment [1] and in experiment [2] was “binds” in each case.

The record behind these values is patent publication US8420776.
